# Assay results published in PMC8004850, “The Histidine Phosphocarrier Kinase/Phosphorylase from Bacillus Subtilis Is an Oligomer in Solution with a High Thermal Stability” (International Journal of Molecular Sciences, 2021).
# Results are given in words; binding and its absence hold for the method and conditions named. Where a sequence is shown, tags or fusion partners need not be part of it.
# B1: histidine phosphocarrier protein (HPr) kinase/phosphorylase of Bacillus subtilis (enzyme, UniProt O34483 1-310, looked up)
# chain: MAKVRTKDVMEQFNLELISGEEGINRPITMSDLSRPGIEIAGYFTYYPRERVQLLGKTELSFFEQLPEEEKKQRMDSLCTDVTPAIILSRDMPIPQELIDASEKNGVPVLRSPLKTTRLSSRLTNFLESRLAPTTAIHGVLVDIYGVGVLITGKSGVGKSETALELVKRGHRLVADDCVEIRQEDQDTLVGNAPELIEHLLEIRGLGIINVMTLFGAGAVRSNKRITIVMNLELWEQGKQYDRLGLEEETMKIIDTEITKLTIPVRPGRNLAVIIEVAAMNFRLKRMGLNAAEQFTNKLADVIEDGEQEE
# notes: HPr kinase/phosphorylase (HPrK/P) of Bacillus subtilis; theoretical molecular weight 36.6 kDa including the His-tag; Vector was a gift from Dr. A. Galinier; Oligomeric state depends on the buffer: monomer in pure water (DLS), mainly hexamer in 50 mM sodium phosphate pH 7.0; also called bsHPrK/P; HPrK/P; source: E. coli BL21 (DE3), purified (Ni-resin, Superdex 200 gel filtration), dialysed against …
# Molecular target: histidine phosphocarrier protein (HPr) kinase/phosphorylase of Bacillus subtilis (Bacillus subtilis) (UniProt O34483)
# Experiment: condition: only in pure water (pH 7.2-7.4), without buffer; 32 µM; dynamic light scattering (DLS); pure water (pH 7.2-7.4), 32 µM protein, 25 °C; MW from the Stokes-Einstein equation assuming a sphere; both purified
binder,measurement,value
B1,binding,no binding
